Measurements from PubChem BioAssay AID1688 (National Center for Advancing Translational Sciences (NCATS), 2009).
Among all 220,000 compounds or so, about 2,400 (1.1%) were called active. Inconclusive means that the source gave no clear call. Such entries were picked first, then a sample of the others. Calls come from the whole dose curve; as a rule, active = well fitted inhibition curve with a large enough effect; inconclusive = small, poorly fitted or top-dose-only effect, or effect the other way; inactive = no such curve, though single readings can be large or run the other way. A potency beside an inconclusive call is a rough fit, not a confirmed value.

assay: qHTS Multiplex Assay to Identify Dual Action Probes in a Cell Model of Huntington: Aggregate Formation (GFP); conditions: PC12 HttQ103-GFP aggregates, Acumen cytometry, 40 h; activity change, negative = inhibition: at 46.1 µM (top of the series) unless noted; note: nearly all actives have a fitted effect of over 60% in size
Outline: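 Steps: seed 1500 PC12 HTTQ103-GFP cells/well; add tebufenozide, 100 nM final; add compound titration; add ATPLite reagent; quantify GFP aggregates by laser scanning cytometry.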
% is set by controls: 0 for no effect and ±100 for the full control effect; potency is the fitted concentration of half-maximal effect.

Row | SMILES | Potency | activity change, negative = inhibition
1 | CCc1ccc2[nH]c(=O)c(CN(CCCN3CCOCC3)C(=O)Nc3cccc(Cl)c3)cc2c1 | inconclusive: 35.5 µM [inhibitor, single point] | 
2 | Cc1ccc(C)c(S(=O)(=O)ON2C(=O)c3ccccc3C2=O)c1 | inconclusive: 2.82 µM [inhibitor, partial curve] | 
3 | COc1cccc(CNc2ccc(N3CCCCC3)cc2)c1OC | inconclusive: 3.55 µM [activator, partial curve] | 
4 | O=c1c2cc(Br)ccc2nc(-c2cccc(C(F)(F)F)c2)n1O | inconclusive: 8.91 µM [inhibitor, partial curve] | 
5 | Cn1c(SCc2ccccc2)nnc1-c1ccc2c(c1)OCO2 |  | inactive: -23.3%
6 | CCOC(=O)c1ccc(N2C(=O)CC(N3CCC(C(N)=O)(N4CCCCC4)CC3)C2=O)cc1 (stereo unspecified) |  | inactive: -0.9%
7 | Cc1c(Cl)cccc1NC(=S)NNc1ncc(C(F)(F)F)cc1Cl | active: 12.6 µM | 
8 | Cc1cccc2c1[nH]c1nc(N/N=C\c3ccco3)nnc12 |  | inactive: -1.87%
9 | O=C(/C(=C/O)N=Nc1ccc(Cl)cc1)c1ccncc1 | inconclusive: 35.5 µM [activator, partial curve, poor fit] | 
10 | O=c1cc(C(F)(F)F)[nH]c2c(C(F)(F)F)cccc12 | active: 20 µM | 
11 | O=C(N1CCOCC1)N1CCN(c2ccccc2)CC1 |  | inactive: 7.42%
12 | COc1ccccc1Cn1c(=O)c2ccccc2n2c(SCc3csc(C)n3)nnc12 |  | inactive: -3.42%
13 | CCCC1C(c2ccc(OC)cc2)C(C#N)(C#N)C2(C#N)CC1(N)NC2=O (stereo unspecified) | inconclusive: 0.794 µM [activator, single point] | 
14 | Cc1ccc(OCCNS(=O)(=O)c2ccc(N3CCCC3=O)cc2)cc1C | inconclusive: 8.91 µM [inhibitor, partial curve] | 
15 | Cc1cccc(NC(=S)NCC(c2cccnc2)N(C)C)c1C (stereo unspecified) | inconclusive: 3.16 µM [activator, single point] | 
16 | Cc1cc(C(=O)Cn2nnc(-c3ccc(Cl)cc3)n2)c(C)n1CC1CCCO1 (stereo unspecified) | inconclusive: 12.6 µM [inhibitor, partial curve] | 
17 | COc1ccc(/C=C/c2cc(C(=O)O)c3ccccc3n2)cc1 |  | inactive: -0.453% [at 9.22 µM]
18 | CCc1cccc(NC(=O)c2cc(OC)c(OC)c(OC)c2)c1 |  | inactive: 3.13%
19 | N#Cc1c2nc3ccccc3nc2n2cc(NC(=O)c3ccc(F)cc3)ccc12 |  | inactive: 8.19%
20 | COc1ccc2[nH]c(=O)c(CN(Cc3ccco3)Cc3nnnn3Cc3ccccc3)cc2c1 | inconclusive: 5.62 µM [activator, single point] | 
21 | Cc1ccc(S(=O)(=O)NC(C)C(=O)NC2CCCCCC2)cc1 (stereo unspecified) | active: 0.891 µM | 

Rewritten comma-delimited: part of the list above
Row,SMILES,Potency,"activity change, negative = inhibition"
7,Cc1c(Cl)cccc1NC(=S)NNc1ncc(C(F)(F)F)cc1Cl,active: 12.6 µM,
9,O=C(/C(=C/O)N=Nc1ccc(Cl)cc1)c1ccncc1,"inconclusive: 35.5 µM [activator, partial curve, poor fit]",
13,CCCC1C(c2ccc(OC)cc2)C(C#N)(C#N)C2(C#N)CC1(N)NC2=O (stereo unspecified),"inconclusive: 0.794 µM [activator, single point]",
17,COc1ccc(/C=C/c2cc(C(=O)O)c3ccccc3n2)cc1,,inactive: -0.453% [at 9.22 µM]
18,CCc1cccc(NC(=O)c2cc(OC)c(OC)c(OC)c2)c1,,inactive: 3.13%
19,N#Cc1c2nc3ccccc3nc2n2cc(NC(=O)c3ccc(F)cc3)ccc12,,inactive: 8.19%
